In PubChem BioAssay AID2685 (National Center for Advancing Translational Sciences (NCATS), 2010):
Some of the results follow. The main result of the screen is listed elsewhere. These columns were measured beside it and carry no call. Most of these compounds were active or inconclusive in the main read-out, so they are no random draw. The note in brackets gives the kind of curve behind each potency; many fits are weak.

Test: qHTS Assay for Lipid Storage Modulators in Drosophila S3 Cells;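 for cell number change: cells counted by Cell Tracker Red CMTPX staining in the red channel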
Conditions: BODIPY lipid droplet fluorescence, 18-24 h; for cell number change: measured here: cell count max response, cells fed with added oleic acid
Method in brief: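 Laser-scanning cytometry quantifies lipid droplet accumulation (500–530 nm total intensity; droplet/cell object ratio) in oleic acid-fed (400 uM added) Drosophila S3 cells treated with a concentration series. 20 uM Triacsin C defined 100% inhibition.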

[1] = measured here: lipid fluorescence (Fed channel) AC50, cells fed with added oleic acid
[2] = measured here: cell number channel AC50, cells fed with added oleic acid

SMILES	cell number change	AC50 [1]	AC50 [2]
COc1ccc(-n2c(C)c(C)c3c(NCCCO)ncnc32)cc1	-0.709%	3.66 µM [rising, full curve, poor fit]	–
O=C(CNC(=S)N(Cc1ccccc1)Cc1ccccc1F)NCCc1ccccc1	75.3%	–	20.6 µM [rising, single point]
CCOC(=O)c1ccc(NC(=O)c2cc(=O)[nH]c3ccccc23)cc1	-32.7%	–	–
C#CCOC(=O)C[N+](C)(C)CC#Cc1ccccc1	-68.9%	20.6 µM [falling, partial curve, poor fit]	18.4 µM [falling, partial curve, poor fit]
CC(C)(Oc1ccc(Cl)cc1)C(=O)Nc1ccc2oc(-c3ccncc3)nc2c1	5.62%	1.84 µM [rising, partial curve]	–
NC(=O)CC(NC(=O)Cc1cccc2ccccc12)c1ccc(NC2CC3CCC2C3)c([N+](=O)[O-])c1 (stereo not drawn)	-21.4%	–	–
O=C(c1cc2ccccc2oc1=O)N(Cc1ccc(F)cc1)C1CCS(=O)(=O)C1 (stereo not drawn)	-7.35%	–	–
Cn1c2c(c(=O)n(C)c1=O)C(c1ccc(Br)cc1)C(C#N)=C(N)N2 (stereo not drawn)	29.1%	29.1 µM [rising, single point]	–
COC(=O)CCCSc1nccn1-c1ccccc1	-13.1%	1.16 µM [rising, single point]	1.16 µM [rising, single point]
COc1cc2[nH]c(=O)n(CCCCCC(=O)NCCCN3CCOCC3)c(=O)c2cc1OC	3.28%	6.51 µM [falling, single point]	–
Cc1c(NC(=O)CN2C(=O)NC3(CCC(C)CC3)C2=O)c(=O)n(-c2ccccc2)n1C (stereo not drawn)	-48%	18.4 µM [falling, single point]	9.2 µM [falling, partial curve, poor fit]
Cc1ccc(C)c(NS(=O)(=O)c2ccc3[nH]c(=O)oc3c2)c1	81.5%	29.1 µM [rising, partial curve]	16.4 µM [rising, single point]
COc1ccc(-c2nnc(SCC(=O)N3CCCC3)o2)c(OC)c1	-20.5%	–	–
CCCc1cc(=O)oc2cc(C)cc(OCC(=O)NCCN3CCOCC3)c12	-7.16%	2.91 µM [rising, single point]	–
CSc1ccc(CNCc2ccc3c(c2)OCO3)cc1	19.4%	–	–
Cc1cccc2sc(NC(=O)CSc3cn[nH]n3)nc12	-0.952%	–	–
CCN(CC)C(=O)c1oc2ccc(S(=O)(=O)N3CC(C)CC(C)C3)cc2c1C (stereo not drawn)	–	0.82 µM [falling, full curve]	–
Cc1nc2ccccc2c(=O)n1/N=C/c1ccc([N+](=O)[O-])o1	-57.9%	29.1 µM [falling, single point]	29.1 µM [falling, single point]
Cc1ccc(-n2nnnc2SCC(=O)c2cc(C)n(-c3cc(C)on3)c2C)c(C)c1	-42.4%	20.6 µM [falling, partial curve, poor fit]	13 µM [falling, partial curve, poor fit]
Cc1cccc(C)c1NC(=O)CN(C)C(=O)CC1OC(=O)c2ccccc21 (stereo not drawn)	–	–	1.46 µM [rising, partial curve]

SMILES	cell number change	AC50 [1]	AC50 [2]
COC(=O)c1ccc(N/C=C/C(=O)c2ccc(OC)c(OC)c2)cc1	24.1%	0.184 µM [rising, full curve]	–
CCOC(=O)c1cnc(-n2nc(C)cc2C)nc1NNc1nc(C)cc(C)n1	-44.3%	29.1 µM [falling, single point]	29.1 µM [falling, single point]
O=C(CN1CCCCC1)NNc1nc(-c2ccccc2)c2cc(Cl)ccc2n1	131%	23.1 µM [rising, single point]	29.1 µM [rising, partial curve]
CC(C)NS(=O)(=O)c1ccc(NC(=O)C(C)OC(=O)CCC2CCCCC2)cc1 (stereo not drawn)	-27.6%	–	–
CCN(CC)c1ncc(C)c(=O)[nH]1	0.369%	5.17 µM [falling, full curve]	–
CC1=C(C(=O)Nc2ccccc2C(=O)NCCCOC(C)C)SCCO1	16.9%	6.51 µM [falling, single point]	–
COCC1CCN(C(=O)c2cc(COc3ccc(-n4cncn4)cc3)on2)CC1	-2.16%	2.06 µM [rising, partial curve, poor fit]	–
O=C(NCc1ccc(C(F)(F)F)cc1)C1CC(c2ccccc2[N+](=O)[O-])=NO1 (stereo not drawn)	-18.3%	–	–
COc1ccc(COCCN2CCN(S(=O)(=O)c3ccccc3)CCC2=O)cc1	4.29%	11.6 µM [rising, partial curve]	–
O=C(CSc1nnc2n(C3CCCCC3)c(=O)c3ccccc3n12)OC1CCCCC1	-25.1%	–	–
O=C(COC(=O)C12CC3CC(CC(O)(C3)C1)C2)NC(=O)NCc1ccco1	2.42%	4.61 µM [falling, full curve, poor fit]	–
COc1ccc(/C(C)=N/NC(=O)c2ccc3nc[nH]c3c2)cc1	-26%	–	–
OC(c1ccccc1)(C1CCCCC1)C(CN1CCOCC1)c1ccccc1 (stereo not drawn)	-57.8%	29.1 µM [falling, single point]	20.6 µM [falling, single point]
Cc1cc(C)nc(NS(=O)(=O)c2ccc(NC(=O)Nc3ccccc3)cc2)n1	–	6.51 µM [rising, single point]	3.26 µM [rising, single point]
Cn1c(CCNC(=O)c2ccc(F)cc2)nc2ccccc21	5.03%	–	–
CCC(=O)Nc1ccc2c(c1)C(=O)N(C)C2=O	-9.58%	29.1 µM [falling, single point]	–
CC(C)(C)N1C(=O)c2ccccc2NC(=O)N1Cc1ccc(Br)cc1	28.1%	–	–
O=C(OC(C(=O)NCc1ccccc1)c1ccccc1)c1ccco1 (stereo not drawn)	17.9%	0.116 µM [falling, single point]	–
COc1ccc(-c2cc(C)no2)cc1S(=O)(=O)NCC(C)c1ccccc1 (stereo not drawn)	-16%	29.1 µM [falling, single point]	–

Single values from above.
Value of COc1ccc(COCCN2CCN(S(=O)(=O)c3ccccc3)CCC2=O)cc1 under AC50 [1]: 11.6 µM [rising, partial curve]
Value of Cc1cc(C)nc(NS(=O)(=O)c2ccc(NC(=O)Nc3ccccc3)cc2)n1 under AC50 [2]: 3.26 µM [rising, single point]
Value of COCC1CCN(C(=O)c2cc(COc3ccc(-n4cncn4)cc3)on2)CC1 under cell number change: -2.16%
